PubChem BioAssay AID720505, Drosophila RNAi Screening Center | 2013
The screen tested about 20,000 reagents; this is an unselected part of those that have a named target and a result. Over the whole deposit, about 2,100 (10%) are marked active. 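Raw plate signals without normalisation; calls rest on control-based scores that were not deposited; replicate 2 separates called from uncalled poorly.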 The record does not give: the amount of reagent, the time to read-out.

Purpose: 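Fly regulators or components of the CRAC channel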 (primary screen)
Cells: Drosophila S2R+ cells
Knock-down reagent: long dsRNA against Drosophila genes
Treatment: thapsigargin (2 µM) in calcium-free buffer to empty internal stores, then 2 mM calcium added back
Detection: 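Stores emptied by 2 µM thapsigargin without calcium, then 2 mM calcium re-added; fluo-4 fluorescence followed by FLIPR in 384-well plates, per-well averaged endpoint, raw; two screen passes, some wells retested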
Direction: calcium signal and retest calcium signal: higher = more calcium entry after store depletion
Call rule: 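Knock-downs counted as hits when calcium entry dropped relative to STIM1 positive and Rho1 negative controls present on each plate; roughly 1500 genes called, with reductions of differing size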
Calls: active = called as lowering calcium entry; inactive = not called

The opening 3 records, to show the layout:
| Target gene | dsRNA | calcium signal, replicate 1 | calcium signal, replicate 2 | retest calcium signal, replicate 1 | retest calcium signal, replicate 2 | Call |
| --- | --- | --- | --- | --- | --- | --- |
| CG32320 | DRSC21514 | 131 | 117 | – | – | inactive |
| VhaM9.7-b | DRSC11841 | 75.9 | 148 | – | – | inactive |
| BaraB | DRSC06420 | 98.8 | 74.4 | – | – | inactive |

The list itself, repeating the preview:
| Target gene | dsRNA | calcium signal, replicate 1 | calcium signal, replicate 2 | retest calcium signal, replicate 1 | retest calcium signal, replicate 2 | Call |
| --- | --- | --- | --- | --- | --- | --- |
| CG32320 | DRSC21514 | 131 | 117 | – | – | inactive |
| VhaM9.7-b | DRSC11841 | 75.9 | 148 | – | – | inactive |
| BaraB | DRSC06420 | 98.8 | 74.4 | – | – | inactive |
| kek6 | DRSC15299 | 80 | 148 | – | – | inactive |
| CG9568 | DRSC03265 | 121 | 157 | 77.5 | 73.2 | inactive |
| SdhC | DRSC16088 | 98.4 | 96 | – | – | inactive |
| bnl | DRSC16913 | 125 | 261 | – | – | inactive |
| bnl | DRSC23212 | 114 | 133 | – | – | inactive |
| Nup54 | DRSC07282 | 179 | 203 | – | – | inactive |
| CG8379 | DRSC16414 | 122 | 161 | – | – | inactive |
| CG7896 | DRSC16335 | 116 | 110 | – | – | inactive |
| Fdh | DRSC16670 | 89.1 | 129 | – | – | inactive |
| CG31198 | DRSC15891 | 118 | 140 | – | – | inactive |
| Patr-1 | DRSC14159 | 157 | 293 | – | – | inactive |
| CG16853 | DRSC01877 | 94.6 | 155 | – | – | inactive |
| CG4239 | DRSC19885 | 133 | 127 | – | – | inactive |
| Galphaq | DRSC07432 | 131 | 150 | – | – | inactive |
| CG17109 | DRSC15172 | 221 | 188 | – | – | inactive |
| CG34225 | DRSC05270 | 121 | 101 | – | – | inactive |
| ProRS-m | DRSC08261 | 77 | 96.3 | – | – | inactive |
| CG4066 | DRSC15541 | 123 | 89.3 | – | – | inactive |
| Or59a | DRSC04631 | 108 | 153 | – | – | inactive |
| ATPsynB | DRSC09659 | 52.2 | 65.7 | – | – | active |
| TwdlB | DRSC16050 | 57 | 93.3 | – | – | active |
| CG13670 | DRSC10029 | 84.3 | 84.2 | – | – | inactive |
| gig | DRSC11351 | 86.8 | 86 | – | – | inactive |
| Osi11 | DRSC12282 | 107 | 119 | – | – | inactive |
| CanA1 | DRSC16600 | 176 | 129 | – | – | inactive |
| Prps | DRSC10707 | 55.5 | 109 | – | – | active |
| Prps | DRSC10708 | 116 | 81.3 | – | – | inactive |
| CG34007 | DRSC01790 | 79.2 | 5196 | – | – | inactive |
| Nap1 | DRSC04626 | 102 | 98.6 | – | – | inactive |
| homer | DRSC03547 | 79.7 | 112 | – | – | inactive |
| CG40439 | DRSC22707 | 90.3 | 172 | – | – | inactive |
